Reference: article PMC3829154
Results are given in words; binding and its absence hold for the method and conditions named. For some of these results: Binding seen in cells or lysates may run through a third protein. Some results given as binding are weak or reduced against the parent protein; the word gives no strength.

Chains of the proteins cited; added tags and fusions are not shown.
UniProt P08047: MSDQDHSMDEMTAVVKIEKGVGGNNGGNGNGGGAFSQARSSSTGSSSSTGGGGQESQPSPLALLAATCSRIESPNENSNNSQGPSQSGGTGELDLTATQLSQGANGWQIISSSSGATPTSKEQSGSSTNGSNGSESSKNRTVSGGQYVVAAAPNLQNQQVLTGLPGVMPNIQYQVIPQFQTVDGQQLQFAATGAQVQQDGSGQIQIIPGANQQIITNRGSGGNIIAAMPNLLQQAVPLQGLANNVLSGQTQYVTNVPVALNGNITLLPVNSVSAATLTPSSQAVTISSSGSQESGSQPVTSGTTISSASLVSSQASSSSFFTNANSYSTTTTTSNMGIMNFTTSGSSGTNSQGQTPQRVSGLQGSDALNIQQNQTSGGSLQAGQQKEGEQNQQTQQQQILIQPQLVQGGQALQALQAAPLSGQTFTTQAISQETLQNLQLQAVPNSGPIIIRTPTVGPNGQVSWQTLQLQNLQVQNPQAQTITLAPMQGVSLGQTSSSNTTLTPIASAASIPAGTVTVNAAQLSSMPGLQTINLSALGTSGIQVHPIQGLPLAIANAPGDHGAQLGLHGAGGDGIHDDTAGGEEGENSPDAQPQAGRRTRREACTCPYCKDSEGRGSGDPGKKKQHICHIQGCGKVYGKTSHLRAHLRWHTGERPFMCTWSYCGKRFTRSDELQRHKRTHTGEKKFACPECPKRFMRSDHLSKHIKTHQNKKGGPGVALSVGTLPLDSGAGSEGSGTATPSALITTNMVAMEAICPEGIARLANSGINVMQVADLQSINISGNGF
UniProt Q92908: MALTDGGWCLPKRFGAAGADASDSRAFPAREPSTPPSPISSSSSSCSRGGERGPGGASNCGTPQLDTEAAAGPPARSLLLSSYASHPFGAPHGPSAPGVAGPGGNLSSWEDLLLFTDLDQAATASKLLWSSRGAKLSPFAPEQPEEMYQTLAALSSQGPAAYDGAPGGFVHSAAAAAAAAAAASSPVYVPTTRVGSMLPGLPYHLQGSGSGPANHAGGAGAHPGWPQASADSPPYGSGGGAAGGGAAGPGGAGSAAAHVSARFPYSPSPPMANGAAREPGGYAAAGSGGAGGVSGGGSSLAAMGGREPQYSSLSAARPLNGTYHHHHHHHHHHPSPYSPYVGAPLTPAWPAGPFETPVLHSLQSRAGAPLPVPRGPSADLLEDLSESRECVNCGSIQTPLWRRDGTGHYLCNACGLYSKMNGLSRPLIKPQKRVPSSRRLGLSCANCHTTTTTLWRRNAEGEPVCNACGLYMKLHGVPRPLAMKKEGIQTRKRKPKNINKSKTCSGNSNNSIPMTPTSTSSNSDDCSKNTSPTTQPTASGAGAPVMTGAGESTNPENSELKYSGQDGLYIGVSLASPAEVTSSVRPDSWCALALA
UniProt P43694: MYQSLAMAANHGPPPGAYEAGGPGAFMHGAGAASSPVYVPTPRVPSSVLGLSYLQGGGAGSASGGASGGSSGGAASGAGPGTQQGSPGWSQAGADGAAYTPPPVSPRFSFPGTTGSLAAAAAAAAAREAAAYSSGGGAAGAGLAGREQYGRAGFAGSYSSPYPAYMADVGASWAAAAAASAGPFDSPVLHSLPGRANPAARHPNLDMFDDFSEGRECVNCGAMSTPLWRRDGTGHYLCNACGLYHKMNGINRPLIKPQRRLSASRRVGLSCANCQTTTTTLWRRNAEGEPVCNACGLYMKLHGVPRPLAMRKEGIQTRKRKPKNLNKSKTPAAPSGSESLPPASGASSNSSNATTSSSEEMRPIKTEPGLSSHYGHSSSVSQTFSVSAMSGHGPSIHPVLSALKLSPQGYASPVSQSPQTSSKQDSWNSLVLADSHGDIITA

Key:
[1] = biological target: Sp1 (human (endogenous in H520, H226 and human SCC-L tumors)) (UniProt P08047); experiment: ChIP-re-ChIP; first chromatin IP with monoclonal Sp1 antibody, re-immunoprecipitated with GATA4 or GATA6 polyclonal antibody; PCR of the α7-nAChR promoter; untreated control H520 cells
[2] = biological target: Sp1 (human (endogenous in H520, H226 and human SCC-L tumors)) (UniProt P08047); experiment: co-IP; IP-Western of lysates of human SCC-L tumors from patients (SCC-103, SCC-112, SCC-104, SCC-173); Sp1-GATA4; densitometry
[3] = biological target: Sp1 (human (endogenous in H520, H226 and human SCC-L tumors)) (UniProt P08047); experiment: ChIP-re-ChIP; human SCC-L tumors from patients; first chromatin IP with Sp1 antibody, second with GATA4 or GATA6 antibody; PCR of the α7-nAChR promoter
[4] = biological target: Sp1 (human (endogenous in H520, H226 and human SCC-L tumors)) (UniProt P08047); experiment: co-IP; IP-Western with the TrueBlot kit; Sp1 immunoprecipitated, GATA4 blotted; lysates of serum-starved cells without nicotine
[5] = biological target: Sp1 (human (endogenous in H520, H226 and human SCC-L tumors)) (UniProt P08047); experiment: co-IP; IP-Western with the TrueBlot kit; Sp1 immunoprecipitated, GATA4 blotted; lysates of H520 and H226 cells treated with 100 nM nicotine for 48 h
[6] = biological target: Sp1 (human (endogenous in H520, H226 and human SCC-L tumors)) (UniProt P08047); experiment: ChIP-re-ChIP; first chromatin IP with monoclonal Sp1 antibody, eluted with 10 mM DTT, re-immunoprecipitated with GATA4 or GATA6 polyclonal antibody; PCR of the α7-nAChR promoter; H520 cells treated with 100 nM nicotine for 48 h
[7] = biological target: Sp1 (human (endogenous in H520, H226 and human SCC-L tumors)) (UniProt P08047); experiment: co-IP; data not shown; IP-Western of Sp1 and GATA6; H520 and H226 cells treated with nicotine for 48 h
[8] = biological target: Sp1 (human (endogenous in H520, H226 and human SCC-L tumors)) (UniProt P08047); experiment: co-IP; data not shown; IP-Western of lysates of human SCC-L tumors from patients; Sp1-GATA6
[9] = biological target: GATA6 (human (endogenous in H520, H226 and human SCC-L tumors)) (UniProt Q92908); experiment: co-IP; data not shown; the other way around: H520 lysates immunoprecipitated with GATA4 or GATA6 antibody, Sp1 blotted; nicotine-treated cells
[10] = biological target: GATA4 (human (endogenous in H520, H226 and human SCC-L tumors)) (UniProt P43694); experiment: as above
[11] = biological target: GATA6 (human (endogenous in H520, H226 and human SCC-L tumors)) (UniProt Q92908); experiment: co-IP; data not shown; the other way around: H520 lysates immunoprecipitated with GATA4 or GATA6 antibody, Sp1 blotted; serum-starved cells without nicotine
[12] = biological target: GATA4 (human (endogenous in H520, H226 and human SCC-L tumors)) (UniProt P43694); experiment: as above
[13] = biological target: GATA4 (human (endogenous in H520, H226 and human SCC-L tumors)) (UniProt P43694); experiment: ChIP-re-ChIP; data not shown; reverse fashion: first chromatin IP with GATA4 polyclonal antibody followed by re-ChIP; human SCC-L tumors

binding [1] | binding [2] | binding [3] | binding [4] | binding [5] | binding [6] | binding [7] | binding [8] | binding [9] | binding [10] | binding [11] | binding [12] | binding [13] | Substance
binds weakly | binds | binds | binds weakly | binds | binds |  |  |  |  |  |  |  | GATA4 (from UniProt P43694 1-442)
binds weakly |  | binds |  |  | binds | binds | binds |  |  |  |  |  | GATA6 (from UniProt Q92908 1-595)
 |  |  |  |  |  |  |  | binds | binds | binds weakly | binds weakly | binds | Sp1 (from UniProt P08047 1-785)
